Measurements taken from PMC5312387.
Results are given in words; binding and its absence hold for the method and conditions named. Binding seen in cells or lysates may run through a third protein. Some entries that bind do so weakly or less than the wild type.

By UniProt entry, the sequences of proteins in these tests, tags left out. Residues count along the entry.
UniProt P29317, residues 24-976: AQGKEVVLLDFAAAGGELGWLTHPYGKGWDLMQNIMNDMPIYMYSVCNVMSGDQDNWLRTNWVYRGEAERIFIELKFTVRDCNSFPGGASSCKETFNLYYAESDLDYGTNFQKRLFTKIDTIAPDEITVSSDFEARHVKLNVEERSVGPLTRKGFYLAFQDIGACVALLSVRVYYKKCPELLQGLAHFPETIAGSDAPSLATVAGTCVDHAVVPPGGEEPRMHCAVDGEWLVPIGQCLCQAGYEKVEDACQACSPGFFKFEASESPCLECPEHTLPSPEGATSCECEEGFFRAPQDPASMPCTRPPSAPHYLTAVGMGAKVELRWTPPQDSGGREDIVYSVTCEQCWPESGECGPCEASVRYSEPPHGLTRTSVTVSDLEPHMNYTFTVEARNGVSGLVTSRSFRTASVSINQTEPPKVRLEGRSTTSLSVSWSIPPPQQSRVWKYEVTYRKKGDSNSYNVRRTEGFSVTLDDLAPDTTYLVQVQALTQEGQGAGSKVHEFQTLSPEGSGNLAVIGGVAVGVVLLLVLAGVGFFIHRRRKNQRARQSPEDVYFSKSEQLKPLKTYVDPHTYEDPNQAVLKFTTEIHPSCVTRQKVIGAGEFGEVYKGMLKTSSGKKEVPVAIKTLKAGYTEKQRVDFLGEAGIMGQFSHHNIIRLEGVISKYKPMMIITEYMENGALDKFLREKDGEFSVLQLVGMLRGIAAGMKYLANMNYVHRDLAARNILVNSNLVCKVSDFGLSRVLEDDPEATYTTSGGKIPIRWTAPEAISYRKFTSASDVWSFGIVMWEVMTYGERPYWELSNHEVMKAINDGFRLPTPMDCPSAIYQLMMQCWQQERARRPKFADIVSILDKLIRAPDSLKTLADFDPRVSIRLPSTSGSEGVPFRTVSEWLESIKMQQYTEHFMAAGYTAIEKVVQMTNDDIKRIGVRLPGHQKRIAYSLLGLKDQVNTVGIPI
UniProt P54764, residues 20-986: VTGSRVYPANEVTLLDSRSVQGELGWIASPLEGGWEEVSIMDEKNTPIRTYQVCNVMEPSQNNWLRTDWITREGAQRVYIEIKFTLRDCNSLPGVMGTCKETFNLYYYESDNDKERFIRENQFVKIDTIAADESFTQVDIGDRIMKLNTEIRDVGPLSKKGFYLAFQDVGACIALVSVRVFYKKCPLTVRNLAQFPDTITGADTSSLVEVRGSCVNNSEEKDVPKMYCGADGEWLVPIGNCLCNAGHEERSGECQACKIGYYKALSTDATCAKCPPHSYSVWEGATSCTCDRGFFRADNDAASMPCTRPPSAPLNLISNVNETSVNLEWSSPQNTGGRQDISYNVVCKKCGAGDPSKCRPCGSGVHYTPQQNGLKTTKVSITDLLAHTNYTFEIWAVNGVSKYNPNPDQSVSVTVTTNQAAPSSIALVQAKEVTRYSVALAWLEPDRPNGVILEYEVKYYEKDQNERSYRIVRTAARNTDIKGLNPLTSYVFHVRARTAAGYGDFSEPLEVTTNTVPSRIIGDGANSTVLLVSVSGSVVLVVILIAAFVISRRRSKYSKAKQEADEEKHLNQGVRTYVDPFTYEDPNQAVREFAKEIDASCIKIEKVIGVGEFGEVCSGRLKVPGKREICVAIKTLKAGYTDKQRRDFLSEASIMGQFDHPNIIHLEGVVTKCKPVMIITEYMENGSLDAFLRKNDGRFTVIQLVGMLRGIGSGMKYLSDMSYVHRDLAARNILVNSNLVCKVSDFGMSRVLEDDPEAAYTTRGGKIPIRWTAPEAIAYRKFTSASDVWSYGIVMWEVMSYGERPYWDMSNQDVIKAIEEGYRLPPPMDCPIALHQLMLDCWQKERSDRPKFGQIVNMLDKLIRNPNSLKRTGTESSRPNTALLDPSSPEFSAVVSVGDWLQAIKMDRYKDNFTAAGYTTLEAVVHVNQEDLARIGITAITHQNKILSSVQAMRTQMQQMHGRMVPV
UniProt P54756, residues 25-1037: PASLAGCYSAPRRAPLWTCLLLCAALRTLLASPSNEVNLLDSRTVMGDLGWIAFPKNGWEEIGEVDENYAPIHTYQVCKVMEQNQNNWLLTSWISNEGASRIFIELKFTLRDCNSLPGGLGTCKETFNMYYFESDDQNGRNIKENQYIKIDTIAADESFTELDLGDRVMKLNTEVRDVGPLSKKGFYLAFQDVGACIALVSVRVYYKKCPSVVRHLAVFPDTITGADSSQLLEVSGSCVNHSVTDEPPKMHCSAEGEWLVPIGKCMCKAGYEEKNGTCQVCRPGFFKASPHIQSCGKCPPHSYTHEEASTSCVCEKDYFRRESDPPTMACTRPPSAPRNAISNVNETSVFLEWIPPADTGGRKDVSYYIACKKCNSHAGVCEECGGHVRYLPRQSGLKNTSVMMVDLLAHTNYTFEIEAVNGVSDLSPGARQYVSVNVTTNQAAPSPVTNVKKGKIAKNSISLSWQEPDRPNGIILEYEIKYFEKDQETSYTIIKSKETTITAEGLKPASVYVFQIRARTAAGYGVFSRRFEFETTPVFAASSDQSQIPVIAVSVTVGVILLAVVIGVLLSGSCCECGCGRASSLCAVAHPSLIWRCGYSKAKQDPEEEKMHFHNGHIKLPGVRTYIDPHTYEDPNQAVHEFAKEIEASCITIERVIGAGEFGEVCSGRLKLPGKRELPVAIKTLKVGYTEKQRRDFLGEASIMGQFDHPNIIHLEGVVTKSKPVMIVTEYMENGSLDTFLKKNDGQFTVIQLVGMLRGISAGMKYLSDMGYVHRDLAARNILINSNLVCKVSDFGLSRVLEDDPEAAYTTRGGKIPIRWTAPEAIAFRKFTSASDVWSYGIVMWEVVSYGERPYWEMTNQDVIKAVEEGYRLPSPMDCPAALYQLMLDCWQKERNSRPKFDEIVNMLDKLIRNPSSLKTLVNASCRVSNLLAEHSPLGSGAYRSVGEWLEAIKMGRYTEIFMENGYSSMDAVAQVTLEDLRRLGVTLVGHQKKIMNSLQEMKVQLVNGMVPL

T1: Ephrin B3 (human (endogenous in U-1810, H23 and U-1752)) (UniProt Q15768)
T1 sequence: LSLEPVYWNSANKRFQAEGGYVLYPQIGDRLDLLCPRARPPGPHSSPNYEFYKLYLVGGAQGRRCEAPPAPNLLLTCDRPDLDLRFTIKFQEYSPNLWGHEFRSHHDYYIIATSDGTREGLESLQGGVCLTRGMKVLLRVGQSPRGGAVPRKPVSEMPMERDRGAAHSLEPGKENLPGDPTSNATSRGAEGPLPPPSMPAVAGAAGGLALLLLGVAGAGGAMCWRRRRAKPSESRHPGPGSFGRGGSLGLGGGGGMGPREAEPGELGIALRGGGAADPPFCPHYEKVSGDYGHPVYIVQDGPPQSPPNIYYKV

B1: EphA3 (receptor, UniProt P29320 21-983)
chain: ELIPQPSNEVNLLDSKTIQGELGWISYPSHGWEEISGVDEHYTPIRTYQVCNVMDHSQNNWLRTNWVPRNSAQKIYVELKFTLRDCNSIPLVLGTCKETFNLYYMESDDDHGVKFREHQFTKIDTIAADESFTQMDLGDRILKLNTEIREVGPVNKKGFYLAFQDVGACVALVSVRVYFKKCPFTVKNLAMFPDTVPMDSQSLVEVRGSCVNNSKEEDPPRMYCSTEGEWLVPIGKCSCNAGYEERGFMCQACRPGFYKALDGNMKCAKCPPHSSTQEDGSMNCRCENNYFRADKDPPSMACTRPPSSPRNVISNINETSVILDWSWPLDTGGRKDVTFNIICKKCGWNIKQCEPCSPNVRFLPRQFGLTNTTVTVTDLLAHTNYTFEIDAVNGVSELSSPPRQFAAVSITTNQAAPSPVLTIKKDRTSRNSISLSWQEPEHPNGIILDYEVKYYEKQEQETSYTILRARGTNVTISSLKPDTIYVFQIRARTAAGYGTNSRKFEFETSPDSFSISGESSQVVMIAISAAVAIILLTVVIYVLIGRFCGYKSKHGADEKRLHFGNGHLKLPGLRTYVDPHTYEDPTQAVHEFAKELDATNISIDKVVGAGEFGEVCSGRLKLPSKKEISVAIKTLKVGYTEKQRRDFLGEASIMGQFDHPNIIRLEGVVTKSKPVMIVTEYMENGSLDSFLRKHDAQFTVIQLVGMLRGIASGMKYLSDMGYVHRDLAARNILINSNLVCKVSDFGLSRVLEDDPEAAYTTRGGKIPIRWTSPEAIAYRKFTSASDVWSYGIVLWEVMSYGERPYWEMSNQDVIKAVDEGYRLPPPMDCPAALYQLMLDCWQKDRNNRPKFEQIVSILDKLIRNPGSLKIITSAAARPSNLLLDQSNVDITTFRTTGDWLNGVWTAHCKEIFTGVEYSSCDTIAKISTDDMKKVGVTVVGPQKKIISSIKALETQSKNGPVPV

Key:
[1] = molecular target: T1, Ephrin B3 (human (endogenous in U-1810, H23 and U-1752)); experiment: co-IP; Ephrin B3 immunoprecipitated from lysates of untreated U-1810, H23 and U-1752 cells (800 ug lysate; 25 mM Tris-HCl pH 7.4, 150 mM NaCl, 1 mM EDTA, 1% Nonidet P-40, 5% glycerol; protein G-Sepharose), western blot for Ephs
[2] = molecular target: T1, Ephrin B3 (human (endogenous in U-1810, H23 and U-1752)); experiment: co-IP; Ephrin B3 pull-down of EphA2 from the same U-1810 cell lysate as used for the kinase immunoprecipitations; data not shown
[3] = molecular target: T1, Ephrin B3 (human (endogenous in U-1810, H23 and U-1752)); experiment: proximity ligation; PLA in situ on fixed untreated U-1810, H23 and U-1752 cells with Ephrin B3 and EphA2 antibodies (Duolink II)
[4] = molecular target: T1, Ephrin B3 (human (endogenous in U-1810, H23 and U-1752)); experiment: co-IP; Ephrin B3 immunoprecipitated from lysates of untreated U-1810, H23 and U-1752 cells (800 ug lysate; 25 mM Tris-HCl pH 7.4, 150 mM NaCl, 1 mM EDTA, 1% Nonidet P-40, 5% glycerol; protein G-Sepharose), western blot for Ephs; remark: listed apart in the source

| Molecule | binding [1] | binding [2] | binding [3] | binding [4] |
| --- | --- | --- | --- | --- |
| EphA2 (from UniProt P29317 24-976) (receptor) | binds | binds | binds | – |
| EphA4 (from UniProt P54764 20-986) (receptor) | binds | – | – | – |
| EphA5 (from UniProt P54756 25-1037) (receptor) | binds | – | – | – |
| Ser897-phosphorylated EphA2 (from UniProt P29317 24-976) (receptor) | binds | – | – | – |
| B1 | – | – | – | binds |
